{"source": "PubChem BioAssay AID504774, Drosophila RNAi Screening Center | 2011", "screen": "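Knock-downs that shift viability of MMS-exposed cells relative to untreated ones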 (primary screen)", "cells": "Drosophila Kc167 cells", "reagent": "long dsRNA against Drosophila genes, about 0.25 µg dsRNA per well", "duration": "about 6 days: 3 days knock-down, then 3 days with or without MMS", "challenge": "methyl methanesulphonate 0.004% (w/v) for 3 days after knock-down", "measurement": "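ATP-dependent luminescence as a measure of live cells in MMS-exposed wells, quantile normalised within each plate, with replicate values also given as a mean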", "scale": "mean viability with MMS: higher = more surviving cells after MMS", "note": "The screen tested about 23,000 reagents; shown is an unselected part of those that have a named target and a result. 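Values are quantile-normalised luminescence on an arbitrary scale; higher means more cells surviving MMS.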 Further read-outs or replicates are left out here."}
The first 2 entries as a preview:
{"gene knocked down": "CG10005", "DRSC id": "DRSC14172", "mean viability with MMS": 3.43e6}
{"gene knocked down": "hop (hopscotch)", "DRSC id": "DRSC20340", "mean viability with MMS": 3.48e6}

Main list, repeating the preview:
{"gene knocked down": "CG10005", "DRSC id": "DRSC14172", "mean viability with MMS": 3.43e6}
{"gene knocked down": "hop (hopscotch)", "DRSC id": "DRSC20340", "mean viability with MMS": 3.48e6}
{"gene knocked down": "hop (hopscotch)", "DRSC id": "DRSC23334", "mean viability with MMS": 3.68e6}
{"gene knocked down": "CG32603", "DRSC id": "DRSC19409", "mean viability with MMS": 3.62e6}
{"gene knocked down": "CG32603", "DRSC id": "DRSC21586", "mean viability with MMS": 3.64e6}
{"gene knocked down": "tobi (target of brain insulin)", "DRSC id": "DRSC14435", "mean viability with MMS": 3.23e6}
{"gene knocked down": "ImpL1 (Ecdysone-inducible gene L1)", "DRSC id": "DRSC11197", "mean viability with MMS": 3.38e6}
{"gene knocked down": "CG8630", "DRSC id": "DRSC16441", "mean viability with MMS": 3.40e6}
{"gene knocked down": "CG34263", "DRSC id": "DRSC07866", "mean viability with MMS": 3.66e6}
{"gene knocked down": "CG3513", "DRSC id": "DRSC00608", "mean viability with MMS": 3.62e6}
{"gene knocked down": "Dso1 (Daisho1)", "DRSC id": "DRSC21815", "mean viability with MMS": 3.36e6}
{"gene knocked down": "CG13594", "DRSC id": "DRSC04229", "mean viability with MMS": 3.44e6}
{"gene knocked down": "CG13594", "DRSC id": "DRSC23254", "mean viability with MMS": 3.27e6}
{"gene knocked down": "CG9582", "DRSC id": "DRSC03267", "mean viability with MMS": 3.92e6}
{"gene knocked down": "Orc4 (Origin recognition complex subunit 4)", "DRSC id": "DRSC04634", "mean viability with MMS": 3.16e6}
{"gene knocked down": "CG11617", "DRSC id": "DRSC00321", "mean viability with MMS": 3.57e6}
{"gene knocked down": "CG11617", "DRSC id": "DRSC21786", "mean viability with MMS": 3.23e6}
{"gene knocked down": "CG30177", "DRSC id": "DRSC22680", "mean viability with MMS": 3.48e6}
{"gene knocked down": "CG17580", "DRSC id": "DRSC06683", "mean viability with MMS": 3.61e6}
{"gene knocked down": "Dpit47 (DNA polymerase interacting tpr containing protein of 47kD)", "DRSC id": "DRSC04985", "mean viability with MMS": 3.32e6}
{"gene knocked down": "Kr-h1 (Kruppel homolog 1)", "DRSC id": "DRSC00908", "mean viability with MMS": 3.43e6}
{"gene knocked down": "Kr-h1 (Kruppel homolog 1)", "DRSC id": "DRSC03355", "mean viability with MMS": 3.52e6}
{"gene knocked down": "CG11309", "DRSC id": "DRSC11650", "mean viability with MMS": 3.50e6}
{"gene knocked down": "L (retired record)", "DRSC id": "DRSC05966", "mean viability with MMS": 3.45e6}
{"gene knocked down": "L (retired record)", "DRSC id": "DRSC05967", "mean viability with MMS": 2.91e6}
